Assay results as given in publication PMC5703852.
These are yes or no findings as the source states them, for the method shown. Binding seen in cells or lysates may run through a third protein. Some entries that bind do so weakly or less than the wild type.

Chains of the proteins cited; added tags and fusions are not shown. Lines headed by an entry give the natural chain unless they say otherwise; changes in a name come on top.
UniProt A6JFZ3: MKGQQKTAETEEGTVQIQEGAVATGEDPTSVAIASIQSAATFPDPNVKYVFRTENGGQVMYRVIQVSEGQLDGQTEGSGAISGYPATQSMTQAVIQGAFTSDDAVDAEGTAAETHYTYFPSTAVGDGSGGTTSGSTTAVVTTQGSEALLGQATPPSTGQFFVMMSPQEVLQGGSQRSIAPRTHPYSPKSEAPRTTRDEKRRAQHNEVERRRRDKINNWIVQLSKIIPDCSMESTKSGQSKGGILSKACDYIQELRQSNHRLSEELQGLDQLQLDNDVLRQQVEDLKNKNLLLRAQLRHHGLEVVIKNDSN
UniProt P22415: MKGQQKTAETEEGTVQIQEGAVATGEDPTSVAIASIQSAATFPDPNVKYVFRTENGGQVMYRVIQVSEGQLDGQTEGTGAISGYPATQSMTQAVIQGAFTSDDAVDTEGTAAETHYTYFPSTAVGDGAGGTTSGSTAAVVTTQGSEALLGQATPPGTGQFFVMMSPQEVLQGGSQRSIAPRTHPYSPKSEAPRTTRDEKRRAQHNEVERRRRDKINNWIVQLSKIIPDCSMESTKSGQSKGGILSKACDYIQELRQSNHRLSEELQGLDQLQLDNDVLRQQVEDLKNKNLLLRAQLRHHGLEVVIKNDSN
UniProt P52947: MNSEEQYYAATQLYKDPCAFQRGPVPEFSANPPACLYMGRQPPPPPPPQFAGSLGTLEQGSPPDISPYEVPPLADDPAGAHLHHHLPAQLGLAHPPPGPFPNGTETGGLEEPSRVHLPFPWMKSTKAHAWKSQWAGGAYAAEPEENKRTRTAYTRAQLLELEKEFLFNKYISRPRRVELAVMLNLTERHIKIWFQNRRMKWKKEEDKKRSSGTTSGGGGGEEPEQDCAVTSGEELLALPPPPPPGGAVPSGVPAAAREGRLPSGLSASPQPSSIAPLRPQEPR
UniProt P52946: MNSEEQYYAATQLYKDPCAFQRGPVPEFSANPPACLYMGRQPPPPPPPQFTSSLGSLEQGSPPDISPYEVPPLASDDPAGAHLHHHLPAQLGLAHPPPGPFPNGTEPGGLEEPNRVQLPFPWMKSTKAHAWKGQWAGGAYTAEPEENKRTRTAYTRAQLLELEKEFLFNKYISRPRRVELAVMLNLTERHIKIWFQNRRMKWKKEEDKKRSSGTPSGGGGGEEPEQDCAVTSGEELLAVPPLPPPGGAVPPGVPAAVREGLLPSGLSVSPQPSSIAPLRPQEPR

Legend:
[1] = molecular target: upstream stimulatory factor USF1 (endogenous, INS-1 cells) (rat (endogenous in INS-1)) (UniProt A6JFZ3); experiment: co-IP; 2 mg nuclear extract of INS-1 cells (starved, then 0, 5 or 25 mM glucose for 4 h; or DMSO 24 h), pre-cleared, incubated with USF1 antibody sc-8983 for 2 h at 4 °C, protein G sepharose, washed with PBS; Western blot for PDX-1
[2] = molecular target: upstream stimulatory factor USF1 (endogenous, INS-1 cells) (rat (endogenous in INS-1)) (UniProt A6JFZ3); experiment: co-IP; as a1, but INS-1 cells treated with the CK2 inhibitors 10 µM CX-4945 or 50 µM quinalizarin for 24 h before nuclear extraction
GST-USF1 T100A = GST-USF1 T100A (UniProt P22415); experiment: pull-down; 10 µg purified GST fusion protein on GSH-sepharose in PBS-T (PBS pH 7.4, 1% Tween 20), 2 h at 4 °C with 7.5 µl in vitro translated [35S]methionine-labelled partner; SDS-PAGE, Coomassie, autoradiography; only the target purified
GST-USF1 wild-type = GST-USF1 wild-type (UniProt P22415); experiment: as above

Substance	binding [1]	binding [2]	binding (GST-USF1 T100A)	binding (GST-USF1 wild-type)
PDX-1 (endogenous, INS-1 cells) (from UniProt P52947 1-283)	binds	binds weakly		
in vitro translated PDX-1 (pRSET-PDX-1) (from UniProt P52946 1-284)			binds	binds
